# Source: the supplement of paper PMC8728848
# Some of the results follow.
# Assays:
# Experiment in all cases: glycan array binding signal (z-score within array); higher = stronger binding
# Details in all cases: glycan notation: IUPAC condensed, linker removed
# [1] = molecular target: Gal(b1-4)GlcNAc(b1-2)Man(a1-6)[Man(a1-3)]Man(b1-4)GlcNAc(b1-4)GlcNAc
# Method in brief: (§1)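 Glycan array data were curated from 3228 arrays in the Consortium for Functional Glycomics database and kept only where the protein sequence was available. Glycan names were converted to IUPAC-condensed notation, and columns mapping to the same glycan were averaged. The binding signal is a within-array Z-score, averaged across arrays of the same protein sequence at different concentrations or buffers and across linkers. Negative Z-scores can be read as non-binding.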
# [2] = molecular target: Gal(b1-4)GlcNAc(b1-2)[Gal(b1-4)GlcNAc(b1-4)]Man(a1-3)[Gal(b1-4)GlcNAc(b1-2)Man(a1-6)]Man(b1-4)GlcNAc(b1-4)GlcNAc
# Method in brief: as §1
# [3] = molecular target: Gal(b1-4)GlcNAc(b1-2)[Gal(b1-4)GlcNAc(b1-4)]Man(a1-3)[Gal(b1-4)GlcNAc(b1-2)[Gal(b1-4)GlcNAc(b1-6)]Man(a1-6)]Man(b1-4)GlcNAc(b1-4)GlcNAc
# Method in brief: as §1
# [4] = molecular target: Gal(b1-4)GlcNAc(b1-2)[Gal(b1-4)GlcNAc(b1-4)]Man(a1-3)[GlcNAc(b1-4)][Gal(b1-4)GlcNAc(b1-2)Man(a1-6)]Man(b1-4)GlcNAc(b1-4)GlcNAc
# Method in brief: as §1
# [5] = molecular target: Gal(b1-4)GlcNAc(b1-2)[Gal(b1-4)GlcNAc(b1-4)]Man(a1-3)[GlcNAc(b1-4)][Gal(b1-4)GlcNAc(b1-2)[Gal(b1-4)GlcNAc(b1-6)]Man(a1-6)]Man(b1-4)GlcNAc(b1-4)GlcNAc
# Method in brief: as §1
# [6] = molecular target: Gal(b1-4)GlcNAc(b1-2)[Gal(b1-4)GlcNAc(b1-6)]Man(a1-6)[Gal(b1-4)GlcNAc(b1-2)Man(a1-3)]Man(b1-4)GlcNAc(b1-4)GlcNAc
# Method in brief: as §1
# [7] = molecular target: Gal(b1-4)GlcNAc(b1-2)[Gal(b1-4)GlcNAc(b1-6)]Man(a1-6)[Gal(b1-4)GlcNAc(b1-2)Man(a1-3)]Man(b1-4)GlcNAc(b1-4)[Fuc(a1-6)]GlcNAc
# Method in brief: as §1
# [8] = molecular target: Gal(b1-4)GlcNAc(b1-2)[Gal(b1-4)GlcNAc(b1-6)]Man(a1-6)[GlcNAc(b1-4)][Gal(b1-4)GlcNAc(b1-2)Man(a1-3)]Man(b1-4)GlcNAc(b1-4)GlcNAc
# Method in brief: as §1
# [9] = molecular target: Gal(b1-4)GlcNAc(b1-2)[Gal(b1-4)GlcNAc(b1-6)]Man(a1-6)[GlcNAc(b1-4)][Gal(b1-4)GlcNAc(b1-2)[Gal(b1-4)GlcNAc(b1-4)]Man(a1-3)]Man(b1-4)GlcNAc(b1-4)[Fuc(a1-6)]GlcNAc
# Method in brief: as §1
# [10] = molecular target: Gal(b1-4)GlcNAc(b1-3)Gal(b1-3)GalNAc
# Method in brief: as §1
# [11] = molecular target: Gal(b1-4)GlcNAc(b1-3)Gal(b1-3)GlcNAc
# Method in brief: as §1
# [12] = molecular target: Gal(b1-4)GlcNAc(b1-3)Gal(b1-4)Glc
# Method in brief: as §1
# [13] = molecular target: Gal(b1-4)GlcNAc(b1-3)Gal(b1-4)GlcNAc
# Method in brief: as §1
# [14] = molecular target: Gal(b1-4)GlcNAc(b1-3)Gal(b1-4)GlcNAc(b1-2)Man(a1-3)[Gal(b1-4)GlcNAc(b1-3)Gal(b1-4)GlcNAc(b1-2)Man(a1-6)]Man(b1-4)GlcNAc(b1-4)GlcNAc
# Method in brief: as §1
# [15] = molecular target: Gal(b1-4)GlcNAc(b1-3)Gal(b1-4)GlcNAc(b1-2)Man(a1-3)[Gal(b1-4)GlcNAc(b1-3)Gal(b1-4)GlcNAc(b1-2)Man(a1-6)]Man(b1-4)GlcNAc(b1-4)[Fuc(a1-6)]GlcNAc
# Method in brief: as §1
# [16] = molecular target: Gal(b1-4)GlcNAc(b1-3)Gal(b1-4)GlcNAc(b1-2)[Gal(b1-4)GlcNAc(b1-3)Gal(b1-4)GlcNAc(b1-6)]Man(a1-6)[Gal(b1-4)GlcNAc(b1-3)Gal(b1-4)GlcNAc(b1-2)Man(a1-3)]Man(b1-4)GlcNAc(b1-4)GlcNAc
# Method in brief: as §1
# [17] = molecular target: Gal(b1-4)GlcNAc(b1-3)Gal(b1-4)GlcNAc(b1-2)[Gal(b1-4)GlcNAc(b1-3)Gal(b1-4)GlcNAc(b1-6)]Man(a1-6)[Gal(b1-4)GlcNAc(b1-3)Gal(b1-4)GlcNAc(b1-2)Man(a1-3)]Man(b1-4)GlcNAc(b1-4)[Fuc(a1-6)]GlcNAc
# Method in brief: as §1
# [18] = molecular target: Gal(b1-4)GlcNAc(b1-3)Gal(b1-4)GlcNAc(b1-3)Gal(b1-4)GlcNAc
# Method in brief: as §1
# [19] = molecular target: Gal(b1-4)GlcNAc(b1-3)Gal(b1-4)GlcNAc(b1-3)Gal(b1-4)GlcNAc(b1-2)Man(a1-3)[Gal(b1-4)GlcNAc(b1-3)Gal(b1-4)GlcNAc(b1-3)Gal(b1-4)GlcNAc(b1-2)Man(a1-6)]Man(b1-4)GlcNAc(b1-4)GlcNAc
# Method in brief: as §1
# [20] = molecular target: Gal(b1-4)GlcNAc(b1-3)Gal(b1-4)GlcNAc(b1-3)Gal(b1-4)GlcNAc(b1-2)Man(a1-3)[Gal(b1-4)GlcNAc(b1-3)Gal(b1-4)GlcNAc(b1-3)Gal(b1-4)GlcNAc(b1-2)Man(a1-6)]Man(b1-4)GlcNAc(b1-4)[Fuc(a1-6)]GlcNAc
# Method in brief: as §1
# [21] = molecular target: Gal(b1-4)GlcNAc(b1-3)Gal(b1-4)GlcNAc(b1-3)Gal(b1-4)GlcNAc(b1-2)[Gal(b1-4)GlcNAc(b1-3)Gal(b1-4)GlcNAc(b1-3)Gal(b1-4)GlcNAc(b1-6)]Man(a1-6)[Gal(b1-4)GlcNAc(b1-3)Gal(b1-4)GlcNAc(b1-3)Gal(b1-4)GlcNAc(b1-2)Man(a1-3)]Man(b1-4)GlcNAc(b1-4)[Fuc(a1-6)]GlcNAc
# Method in brief: as §1
# [22] = molecular target: Gal(b1-4)GlcNAc(b1-3)Gal(b1-4)GlcNAc(b1-3)Gal(b1-4)GlcNAc(b1-3)Gal(b1-4)GlcNAc(b1-2)Man(a1-3)[Gal(b1-4)GlcNAc(b1-3)Gal(b1-4)GlcNAc(b1-3)Gal(b1-4)GlcNAc(b1-3)Gal(b1-4)GlcNAc(b1-2)Man(a1-6)]Man(b1-4)GlcNAc(b1-4)GlcNAc
# Method in brief: as §1
binder,measurement,setting,value
"SfaEH (Escherichia coli), Q1RDG5 (protein) LLCRNNQTGQVFNSGDTSFRVNVSPVVQYDKSISVLDLSQLVSCQNEDSTGQNYDYLKILKGSGFSPALDTKTYGRLDFTSRPTGYARQLPLQFDLQVTEAFYQYGVWKPFPAKLYLYPAPGVFGKVINNGDLLATLYVNKFSTKGQEAGERNFTWRFYATNDVYIQTGTCRVSSNNVKVDLPSYPGGPVTVPLTVRCDQTQSVSYTLSGPVTGSGNTVFANTAASGSGGVGIQLSDNVGPVPAGQPRSLGQVGSSPVSLGLKASYALTGQASPTPGAVQSVINVTFSYN",glycan array binding signal (z-score),[1],-0.22
same,glycan array binding signal (z-score),[2],1.8
same,glycan array binding signal (z-score),[3],0.046
same,glycan array binding signal (z-score),[4],0.346
same,glycan array binding signal (z-score),[5],1.56
same,glycan array binding signal (z-score),[6],-0.54
same,glycan array binding signal (z-score),[7],-0.781
same,glycan array binding signal (z-score),[8],0.119
same,glycan array binding signal (z-score),[9],-0.371
same,glycan array binding signal (z-score),[10],-0.702
same,glycan array binding signal (z-score),[11],0.732
same,glycan array binding signal (z-score),[12],0.024
same,glycan array binding signal (z-score),[13],-0.049
same,glycan array binding signal (z-score),[14],0.118
same,glycan array binding signal (z-score),[15],-0.002
same,glycan array binding signal (z-score),[16],-0.246
same,glycan array binding signal (z-score),[17],0.724
same,glycan array binding signal (z-score),[18],0.382
same,glycan array binding signal (z-score),[19],1.06
same,glycan array binding signal (z-score),[20],0.461
same,glycan array binding signal (z-score),[21],1.36
same,glycan array binding signal (z-score),[22],0.992

# A section from further up, as a working copy:
binder,measurement,setting,value
"SfaEH (Escherichia coli), Q1RDG5 (protein) LLCRNNQTGQVFNSGDTSFRVNVSPVVQYDKSISVLDLSQLVSCQNEDSTGQNYDYLKILKGSGFSPALDTKTYGRLDFTSRPTGYARQLPLQFDLQVTEAFYQYGVWKPFPAKLYLYPAPGVFGKVINNGDLLATLYVNKFSTKGQEAGERNFTWRFYATNDVYIQTGTCRVSSNNVKVDLPSYPGGPVTVPLTVRCDQTQSVSYTLSGPVTGSGNTVFANTAASGSGGVGIQLSDNVGPVPAGQPRSLGQVGSSPVSLGLKASYALTGQASPTPGAVQSVINVTFSYN",glycan array binding signal (z-score),[5],1.56
same,glycan array binding signal (z-score),[6],-0.54
